Experimental data reported in article doi:10.1101/2023.08.10.552479.
No constants are given. Whether binding was seen depends on the method and setting. Binding seen in cells or lysates may run through a third protein. Some results given as binding are weak or reduced against the parent protein; the word gives no strength.

The chains behind the UniProt entries cited, without tags or fusion partners.
UniProt Q9UN81: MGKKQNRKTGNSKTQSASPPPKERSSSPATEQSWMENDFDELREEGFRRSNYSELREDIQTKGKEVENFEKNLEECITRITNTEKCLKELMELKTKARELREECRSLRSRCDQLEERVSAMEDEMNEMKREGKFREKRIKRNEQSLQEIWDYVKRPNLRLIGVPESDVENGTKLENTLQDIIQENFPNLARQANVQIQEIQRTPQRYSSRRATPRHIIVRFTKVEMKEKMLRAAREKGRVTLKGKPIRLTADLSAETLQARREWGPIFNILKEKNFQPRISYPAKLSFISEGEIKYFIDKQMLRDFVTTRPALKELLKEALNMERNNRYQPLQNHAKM
UniProt P20700: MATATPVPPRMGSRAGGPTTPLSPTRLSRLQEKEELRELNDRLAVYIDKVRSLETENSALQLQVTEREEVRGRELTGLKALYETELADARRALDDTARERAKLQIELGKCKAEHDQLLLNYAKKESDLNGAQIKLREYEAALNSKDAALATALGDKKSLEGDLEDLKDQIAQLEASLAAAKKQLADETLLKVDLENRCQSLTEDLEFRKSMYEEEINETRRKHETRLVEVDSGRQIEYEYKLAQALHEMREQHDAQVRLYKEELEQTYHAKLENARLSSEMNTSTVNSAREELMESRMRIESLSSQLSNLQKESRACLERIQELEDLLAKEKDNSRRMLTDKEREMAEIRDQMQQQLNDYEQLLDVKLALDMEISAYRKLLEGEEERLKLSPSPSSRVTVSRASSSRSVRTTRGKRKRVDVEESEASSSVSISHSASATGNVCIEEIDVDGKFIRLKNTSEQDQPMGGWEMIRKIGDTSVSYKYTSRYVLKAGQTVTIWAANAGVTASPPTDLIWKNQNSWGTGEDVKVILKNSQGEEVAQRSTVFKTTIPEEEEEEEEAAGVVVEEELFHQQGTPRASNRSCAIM
UniProt P49790: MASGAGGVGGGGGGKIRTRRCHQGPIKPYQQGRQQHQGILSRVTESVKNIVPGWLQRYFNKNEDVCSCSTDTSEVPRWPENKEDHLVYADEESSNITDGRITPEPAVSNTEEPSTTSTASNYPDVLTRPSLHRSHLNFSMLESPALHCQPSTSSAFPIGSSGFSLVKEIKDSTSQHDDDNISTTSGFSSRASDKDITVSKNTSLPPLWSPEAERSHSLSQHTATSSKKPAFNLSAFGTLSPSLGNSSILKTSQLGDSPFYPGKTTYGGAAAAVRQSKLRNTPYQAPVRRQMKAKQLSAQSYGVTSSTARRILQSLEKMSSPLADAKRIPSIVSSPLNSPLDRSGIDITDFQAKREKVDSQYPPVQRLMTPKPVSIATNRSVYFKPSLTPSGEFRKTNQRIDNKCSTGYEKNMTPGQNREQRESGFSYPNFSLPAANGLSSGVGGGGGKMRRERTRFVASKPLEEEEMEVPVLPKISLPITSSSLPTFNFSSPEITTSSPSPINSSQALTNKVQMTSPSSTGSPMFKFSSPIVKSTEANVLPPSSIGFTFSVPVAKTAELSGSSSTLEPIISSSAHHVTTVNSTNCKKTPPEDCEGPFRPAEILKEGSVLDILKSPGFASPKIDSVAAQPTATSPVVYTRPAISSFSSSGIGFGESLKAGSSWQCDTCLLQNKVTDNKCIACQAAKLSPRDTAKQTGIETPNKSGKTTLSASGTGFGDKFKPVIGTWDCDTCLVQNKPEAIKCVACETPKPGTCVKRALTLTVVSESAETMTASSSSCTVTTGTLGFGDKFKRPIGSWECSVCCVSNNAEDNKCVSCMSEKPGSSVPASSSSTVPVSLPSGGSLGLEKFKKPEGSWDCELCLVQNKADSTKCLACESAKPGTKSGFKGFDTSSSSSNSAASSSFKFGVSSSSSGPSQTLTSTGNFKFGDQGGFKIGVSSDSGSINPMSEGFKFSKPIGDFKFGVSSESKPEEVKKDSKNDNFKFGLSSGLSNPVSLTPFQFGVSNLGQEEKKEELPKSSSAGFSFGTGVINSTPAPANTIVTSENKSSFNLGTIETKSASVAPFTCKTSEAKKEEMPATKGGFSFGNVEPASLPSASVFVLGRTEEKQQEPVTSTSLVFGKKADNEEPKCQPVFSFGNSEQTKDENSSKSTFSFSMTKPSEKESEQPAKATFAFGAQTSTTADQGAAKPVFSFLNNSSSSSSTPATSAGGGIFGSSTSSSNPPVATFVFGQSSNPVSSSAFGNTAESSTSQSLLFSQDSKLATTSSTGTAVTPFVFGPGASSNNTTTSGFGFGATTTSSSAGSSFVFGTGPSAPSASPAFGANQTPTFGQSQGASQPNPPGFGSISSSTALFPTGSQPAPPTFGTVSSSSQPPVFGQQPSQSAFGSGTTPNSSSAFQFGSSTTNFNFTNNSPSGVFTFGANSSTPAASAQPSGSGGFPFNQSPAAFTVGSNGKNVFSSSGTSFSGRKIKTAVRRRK
UniProt Q14974: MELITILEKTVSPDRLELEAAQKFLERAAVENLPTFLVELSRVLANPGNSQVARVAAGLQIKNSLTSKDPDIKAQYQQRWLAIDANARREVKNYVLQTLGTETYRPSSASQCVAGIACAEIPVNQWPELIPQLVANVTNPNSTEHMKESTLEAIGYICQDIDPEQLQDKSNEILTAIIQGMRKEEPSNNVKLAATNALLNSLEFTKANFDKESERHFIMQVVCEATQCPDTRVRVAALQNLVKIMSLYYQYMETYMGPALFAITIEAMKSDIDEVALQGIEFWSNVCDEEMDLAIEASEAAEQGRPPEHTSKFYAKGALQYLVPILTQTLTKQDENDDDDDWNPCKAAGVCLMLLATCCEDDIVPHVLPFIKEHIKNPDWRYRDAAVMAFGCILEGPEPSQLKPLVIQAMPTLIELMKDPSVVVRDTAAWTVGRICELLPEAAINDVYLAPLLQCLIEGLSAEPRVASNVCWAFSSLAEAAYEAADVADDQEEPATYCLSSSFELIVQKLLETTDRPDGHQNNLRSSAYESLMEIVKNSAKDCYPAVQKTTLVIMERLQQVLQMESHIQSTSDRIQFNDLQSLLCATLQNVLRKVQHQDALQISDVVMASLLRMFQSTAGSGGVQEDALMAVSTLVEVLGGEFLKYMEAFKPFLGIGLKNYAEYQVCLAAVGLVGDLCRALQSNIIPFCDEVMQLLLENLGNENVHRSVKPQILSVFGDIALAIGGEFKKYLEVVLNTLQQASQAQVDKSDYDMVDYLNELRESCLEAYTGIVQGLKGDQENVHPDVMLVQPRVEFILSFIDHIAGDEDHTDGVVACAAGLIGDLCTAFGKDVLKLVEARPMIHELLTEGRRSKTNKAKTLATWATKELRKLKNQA

Legend:
[1] = molecular target: LINE-1 encoded ORF1p (human (endogenous in LUHMES)) (UniProt Q9UN81); experiment: proximity ligation
[2] = molecular target: LINE-1 encoded ORF1p (human (endogenous in LUHMES)) (UniProt Q9UN81); experiment: co-IP

Q: Which results are given for Lamin B1 (from UniProt P20700 1-586)?
A: binding [1]: binds; binding [2]: binds

Q: For NUP153 (from UniProt P49790 1-1475), which binding [1] is on record?
A: The binding was “binds”.

Q: KPNB1 (from UniProt Q14974 1-876) was tested. Which binding [1] did it give?
A: Its binding is “binds”.
